The list shows a part of the results. Most entries show no effect beyond the scatter of the controls.
What follows are targets tested with Cc1nc(Nc2ncc(C(=O)Nc3c(C)cccc3Cl)s2)cc(N2CCN(CCO)CC2)n1 [dasatinib] (assay: log2 fold change of tryptic peptide abundance, ligand vs vehicle (limited proteolysis) (log2 ratio); higher = more trypsin-susceptible (destabilized)). Conditions: ligand concentration: 5 uM; sample: K562 cleared lysate.

Chains of the proteins cited; added tags and fusions are not shown. Lines headed by an entry give the natural chain unless they say otherwise; changes in a name come on top.
UniProt Q96K21: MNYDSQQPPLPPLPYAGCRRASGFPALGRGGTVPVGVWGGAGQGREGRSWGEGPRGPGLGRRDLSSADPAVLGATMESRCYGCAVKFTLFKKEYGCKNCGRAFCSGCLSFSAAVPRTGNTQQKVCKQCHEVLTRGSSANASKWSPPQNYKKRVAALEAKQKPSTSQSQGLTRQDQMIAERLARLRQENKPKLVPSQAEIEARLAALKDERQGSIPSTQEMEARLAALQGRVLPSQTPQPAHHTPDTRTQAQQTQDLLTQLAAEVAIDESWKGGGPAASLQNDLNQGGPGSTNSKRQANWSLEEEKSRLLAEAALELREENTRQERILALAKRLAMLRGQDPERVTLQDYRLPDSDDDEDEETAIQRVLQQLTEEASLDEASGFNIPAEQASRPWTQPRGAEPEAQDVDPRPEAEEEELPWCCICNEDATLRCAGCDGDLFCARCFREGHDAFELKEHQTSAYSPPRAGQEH
UniProt Q96MN5: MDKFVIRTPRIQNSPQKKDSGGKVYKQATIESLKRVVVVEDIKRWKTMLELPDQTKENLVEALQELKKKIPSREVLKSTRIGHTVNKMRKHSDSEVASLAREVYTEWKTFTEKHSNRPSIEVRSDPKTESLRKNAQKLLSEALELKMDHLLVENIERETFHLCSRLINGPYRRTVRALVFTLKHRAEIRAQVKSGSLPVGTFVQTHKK
UniProt Q96LJ8: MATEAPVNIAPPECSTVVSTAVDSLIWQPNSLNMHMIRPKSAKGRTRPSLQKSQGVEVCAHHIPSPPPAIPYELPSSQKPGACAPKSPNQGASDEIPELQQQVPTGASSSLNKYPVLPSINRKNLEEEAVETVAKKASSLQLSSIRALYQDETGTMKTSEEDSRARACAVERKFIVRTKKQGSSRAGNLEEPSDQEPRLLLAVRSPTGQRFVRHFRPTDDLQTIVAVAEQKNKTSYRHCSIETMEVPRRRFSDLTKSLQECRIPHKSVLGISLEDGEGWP
UniProt Q96JP5: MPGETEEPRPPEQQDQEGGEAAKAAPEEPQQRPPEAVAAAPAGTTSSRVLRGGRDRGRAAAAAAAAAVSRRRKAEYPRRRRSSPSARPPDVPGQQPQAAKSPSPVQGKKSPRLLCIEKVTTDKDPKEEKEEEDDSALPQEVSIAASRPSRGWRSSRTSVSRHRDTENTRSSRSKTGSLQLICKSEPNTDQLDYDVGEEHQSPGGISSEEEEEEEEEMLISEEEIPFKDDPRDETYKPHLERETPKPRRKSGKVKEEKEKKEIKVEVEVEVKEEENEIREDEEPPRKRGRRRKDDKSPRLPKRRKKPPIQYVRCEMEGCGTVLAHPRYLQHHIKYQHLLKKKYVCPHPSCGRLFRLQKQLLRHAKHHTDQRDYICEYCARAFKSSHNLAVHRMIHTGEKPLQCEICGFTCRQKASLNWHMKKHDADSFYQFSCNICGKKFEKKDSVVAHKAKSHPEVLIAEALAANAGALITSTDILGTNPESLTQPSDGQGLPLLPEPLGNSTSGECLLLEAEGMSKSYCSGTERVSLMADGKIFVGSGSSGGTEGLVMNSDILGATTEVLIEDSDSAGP
UniProt Q96LT7: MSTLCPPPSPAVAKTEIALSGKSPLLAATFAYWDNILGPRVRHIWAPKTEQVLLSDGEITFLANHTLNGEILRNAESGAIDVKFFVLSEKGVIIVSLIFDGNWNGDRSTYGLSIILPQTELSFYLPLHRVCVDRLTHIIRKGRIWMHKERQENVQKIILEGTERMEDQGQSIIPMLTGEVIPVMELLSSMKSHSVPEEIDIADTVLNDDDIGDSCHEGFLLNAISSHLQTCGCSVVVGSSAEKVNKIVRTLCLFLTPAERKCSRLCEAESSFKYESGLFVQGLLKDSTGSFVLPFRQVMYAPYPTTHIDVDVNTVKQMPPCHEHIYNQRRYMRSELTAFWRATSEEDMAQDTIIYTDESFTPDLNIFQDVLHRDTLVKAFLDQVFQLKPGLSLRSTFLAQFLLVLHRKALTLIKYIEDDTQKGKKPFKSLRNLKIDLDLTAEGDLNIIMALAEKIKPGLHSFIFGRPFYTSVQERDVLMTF
UniProt Q96IU4: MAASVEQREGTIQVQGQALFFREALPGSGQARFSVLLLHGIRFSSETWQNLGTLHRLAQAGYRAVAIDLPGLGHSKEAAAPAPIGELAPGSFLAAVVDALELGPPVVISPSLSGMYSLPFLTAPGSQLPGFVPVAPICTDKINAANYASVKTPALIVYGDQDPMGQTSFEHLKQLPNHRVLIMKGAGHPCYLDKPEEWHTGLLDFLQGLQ
UniProt Q96LT9: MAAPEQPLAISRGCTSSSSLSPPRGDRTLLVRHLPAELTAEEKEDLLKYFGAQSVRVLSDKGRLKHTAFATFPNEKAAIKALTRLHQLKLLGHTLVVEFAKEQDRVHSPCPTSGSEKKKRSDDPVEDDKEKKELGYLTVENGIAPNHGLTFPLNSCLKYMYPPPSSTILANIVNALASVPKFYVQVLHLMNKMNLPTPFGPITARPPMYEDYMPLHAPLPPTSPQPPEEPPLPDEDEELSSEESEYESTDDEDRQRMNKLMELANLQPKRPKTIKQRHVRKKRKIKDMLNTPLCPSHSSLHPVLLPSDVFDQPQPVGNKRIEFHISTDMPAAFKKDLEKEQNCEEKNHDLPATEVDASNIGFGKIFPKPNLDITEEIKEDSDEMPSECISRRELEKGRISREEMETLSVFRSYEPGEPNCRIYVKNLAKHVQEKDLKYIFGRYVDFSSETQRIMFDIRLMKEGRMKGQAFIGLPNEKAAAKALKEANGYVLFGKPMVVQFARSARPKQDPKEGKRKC
UniProt Q96MG7: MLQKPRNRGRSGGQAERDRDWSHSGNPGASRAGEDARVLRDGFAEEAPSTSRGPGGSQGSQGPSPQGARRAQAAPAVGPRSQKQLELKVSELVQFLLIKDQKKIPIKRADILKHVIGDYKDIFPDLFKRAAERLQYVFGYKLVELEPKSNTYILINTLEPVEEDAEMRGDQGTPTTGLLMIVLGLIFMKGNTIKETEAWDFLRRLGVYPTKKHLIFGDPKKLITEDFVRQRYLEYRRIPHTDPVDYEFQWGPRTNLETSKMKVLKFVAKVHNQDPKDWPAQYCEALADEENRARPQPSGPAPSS
UniProt Q96FQ7: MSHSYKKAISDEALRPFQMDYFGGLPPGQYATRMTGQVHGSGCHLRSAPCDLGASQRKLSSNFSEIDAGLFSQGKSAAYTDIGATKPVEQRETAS
UniProt Q96I23: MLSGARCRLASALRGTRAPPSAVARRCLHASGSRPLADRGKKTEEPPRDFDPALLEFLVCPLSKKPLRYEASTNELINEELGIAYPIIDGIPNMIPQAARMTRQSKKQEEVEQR
UniProt Q96JJ3: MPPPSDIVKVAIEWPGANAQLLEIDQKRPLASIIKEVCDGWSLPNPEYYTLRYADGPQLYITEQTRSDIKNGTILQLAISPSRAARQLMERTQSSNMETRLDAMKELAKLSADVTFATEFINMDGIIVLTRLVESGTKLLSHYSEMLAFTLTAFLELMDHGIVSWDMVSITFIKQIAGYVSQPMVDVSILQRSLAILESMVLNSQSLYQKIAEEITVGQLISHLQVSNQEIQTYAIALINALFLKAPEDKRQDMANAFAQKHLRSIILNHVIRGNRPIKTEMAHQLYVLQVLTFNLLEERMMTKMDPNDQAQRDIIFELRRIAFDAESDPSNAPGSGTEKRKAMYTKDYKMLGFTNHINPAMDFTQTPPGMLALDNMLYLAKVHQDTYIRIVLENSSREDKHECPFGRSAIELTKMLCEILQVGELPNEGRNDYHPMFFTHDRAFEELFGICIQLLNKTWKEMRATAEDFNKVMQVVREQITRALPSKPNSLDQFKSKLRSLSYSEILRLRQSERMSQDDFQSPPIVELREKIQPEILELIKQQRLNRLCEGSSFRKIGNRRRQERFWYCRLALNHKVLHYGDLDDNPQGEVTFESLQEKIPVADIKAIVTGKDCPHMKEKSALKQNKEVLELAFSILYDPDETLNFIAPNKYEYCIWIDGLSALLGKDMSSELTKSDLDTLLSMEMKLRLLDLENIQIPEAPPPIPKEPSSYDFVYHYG
UniProt Q96FT9: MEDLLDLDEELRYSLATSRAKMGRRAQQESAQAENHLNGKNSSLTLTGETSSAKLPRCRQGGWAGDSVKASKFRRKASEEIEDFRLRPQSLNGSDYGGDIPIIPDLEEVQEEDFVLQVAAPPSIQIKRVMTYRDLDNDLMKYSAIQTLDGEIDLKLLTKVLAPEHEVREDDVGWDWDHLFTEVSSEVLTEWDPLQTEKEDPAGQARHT
UniProt Q96L03: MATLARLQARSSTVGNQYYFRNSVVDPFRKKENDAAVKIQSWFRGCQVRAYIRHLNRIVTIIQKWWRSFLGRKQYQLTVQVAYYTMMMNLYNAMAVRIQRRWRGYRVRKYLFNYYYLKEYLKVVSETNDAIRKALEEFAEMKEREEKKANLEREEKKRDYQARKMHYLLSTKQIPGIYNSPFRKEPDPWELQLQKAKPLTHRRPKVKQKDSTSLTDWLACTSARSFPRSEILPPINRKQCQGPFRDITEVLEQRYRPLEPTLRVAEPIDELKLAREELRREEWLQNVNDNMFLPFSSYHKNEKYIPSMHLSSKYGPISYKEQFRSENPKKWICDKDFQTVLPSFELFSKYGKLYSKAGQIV
UniProt Q96H86: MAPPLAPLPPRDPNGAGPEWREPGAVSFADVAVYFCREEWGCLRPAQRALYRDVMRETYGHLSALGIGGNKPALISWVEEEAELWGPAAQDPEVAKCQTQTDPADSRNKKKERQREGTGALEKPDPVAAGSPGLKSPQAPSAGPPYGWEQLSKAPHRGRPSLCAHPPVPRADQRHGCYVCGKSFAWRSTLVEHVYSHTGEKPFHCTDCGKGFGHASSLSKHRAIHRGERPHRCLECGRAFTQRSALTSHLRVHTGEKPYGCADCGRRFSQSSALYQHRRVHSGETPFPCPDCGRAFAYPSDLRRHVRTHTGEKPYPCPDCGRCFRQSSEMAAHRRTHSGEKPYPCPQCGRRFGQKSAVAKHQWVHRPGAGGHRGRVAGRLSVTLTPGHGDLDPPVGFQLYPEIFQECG
UniProt Q96PQ6: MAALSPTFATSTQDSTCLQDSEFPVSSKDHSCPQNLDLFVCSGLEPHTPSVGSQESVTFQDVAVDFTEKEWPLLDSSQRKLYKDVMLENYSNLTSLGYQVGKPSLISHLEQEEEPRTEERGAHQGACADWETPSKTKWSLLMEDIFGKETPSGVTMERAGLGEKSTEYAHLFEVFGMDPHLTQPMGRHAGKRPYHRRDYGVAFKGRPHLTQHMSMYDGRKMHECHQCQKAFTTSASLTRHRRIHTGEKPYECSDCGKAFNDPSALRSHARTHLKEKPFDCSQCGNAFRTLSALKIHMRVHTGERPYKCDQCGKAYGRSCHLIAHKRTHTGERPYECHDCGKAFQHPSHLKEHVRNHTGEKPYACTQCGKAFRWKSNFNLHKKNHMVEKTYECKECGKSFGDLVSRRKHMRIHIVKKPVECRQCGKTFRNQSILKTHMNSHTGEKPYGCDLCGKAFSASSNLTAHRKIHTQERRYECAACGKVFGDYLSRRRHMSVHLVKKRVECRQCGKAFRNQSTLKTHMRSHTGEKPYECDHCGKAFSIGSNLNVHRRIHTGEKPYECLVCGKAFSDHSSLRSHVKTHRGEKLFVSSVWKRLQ
UniProt Q96NL8: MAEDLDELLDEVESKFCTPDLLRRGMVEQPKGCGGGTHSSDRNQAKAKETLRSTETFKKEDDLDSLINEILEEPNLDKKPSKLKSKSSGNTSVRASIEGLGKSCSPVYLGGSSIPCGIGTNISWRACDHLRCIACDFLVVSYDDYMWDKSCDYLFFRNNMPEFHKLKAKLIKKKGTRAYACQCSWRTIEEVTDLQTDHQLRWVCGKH
UniProt Q96IQ9: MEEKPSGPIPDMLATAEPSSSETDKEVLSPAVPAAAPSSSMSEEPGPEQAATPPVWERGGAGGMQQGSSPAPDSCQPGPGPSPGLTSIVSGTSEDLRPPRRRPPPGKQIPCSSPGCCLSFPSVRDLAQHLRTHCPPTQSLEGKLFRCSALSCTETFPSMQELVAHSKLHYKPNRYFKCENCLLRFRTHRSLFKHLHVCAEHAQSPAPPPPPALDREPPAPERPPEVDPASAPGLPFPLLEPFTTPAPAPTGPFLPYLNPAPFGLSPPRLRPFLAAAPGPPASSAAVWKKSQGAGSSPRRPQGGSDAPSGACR
UniProt Q96JA3: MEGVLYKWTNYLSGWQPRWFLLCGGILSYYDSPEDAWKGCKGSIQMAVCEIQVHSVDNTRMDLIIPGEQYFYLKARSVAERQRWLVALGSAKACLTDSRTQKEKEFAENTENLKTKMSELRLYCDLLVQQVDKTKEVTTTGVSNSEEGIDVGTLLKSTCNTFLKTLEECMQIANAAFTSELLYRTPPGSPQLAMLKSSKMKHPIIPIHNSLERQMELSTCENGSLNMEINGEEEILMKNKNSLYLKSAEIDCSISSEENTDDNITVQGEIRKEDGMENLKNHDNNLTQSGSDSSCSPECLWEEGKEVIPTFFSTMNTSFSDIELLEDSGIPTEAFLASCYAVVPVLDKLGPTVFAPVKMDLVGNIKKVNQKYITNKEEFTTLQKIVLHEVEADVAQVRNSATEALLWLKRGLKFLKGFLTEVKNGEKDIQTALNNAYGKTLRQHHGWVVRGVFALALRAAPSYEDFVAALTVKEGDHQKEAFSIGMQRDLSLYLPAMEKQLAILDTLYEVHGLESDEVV

Q: Which log2 fold change does the source give for “NEURL4 (peptide sequence: SAGTQGDMEK, peptide start residue: 1303) (UniProt Q96JN8)” here?
A: Its log2 fold change is -0.435.

Q: How did the log2 fold change turn out when “SLC35E1 (peptide sequence: SPLEKPHNGLLFPQHGDYQYGR, peptide start residue: 363) (UniProt Q96K37)” was run?
A: The log2 fold change was 0.214.

Q: With “ZFYVE19 (peptide sequence: LLAEAALELR, peptide start residue: 308) (UniProt Q96K21)” as the target, how does the log2 fold change read?
A: Its log2 fold change is 0.137.

Q: How did the log2 fold change turn out when “IFT140 (peptide sequence: TYTEDPKESIK, peptide start residue: 1348) (UniProt Q96RY7)” was run?
A: The log2 fold change was -0.968.

Q: How did the log2 fold change turn out when “TCEANC2 (peptide sequence: ETFHLCSR, peptide start residue: 158) (UniProt Q96MN5)” was run?
A: Its log2 fold change is -0.43.

Q: Which log2 fold change does the source give for “SPATA33 (peptide sequence: HPPPAASLEEKPDVK, peptide start residue: 61) (UniProt Q96N06)” here?
A: Its log2 fold change is 0.222.

Q: “UBXN10 (peptide sequence: HFRPTDDLQTIVAVAEQK, peptide start residue: 214) (UniProt Q96LJ8)” was tested. Which log2 fold change did it give?
A: Its log2 fold change is 0.387.

Q: For “ZFP91 (peptide sequence: KAEYPRR, peptide start residue: 73) (UniProt Q96JP5)”, which log2 fold change is on record?
A: Its log2 fold change is -0.237.

Q: “C16orf58 (peptide sequence: AFTVKPEGR, peptide start residue: 47) (UniProt Q96GQ5)” was tested. Which log2 fold change did it give?
A: The log2 fold change was -0.336.

Q: Which log2 fold change does the source give for “OTUD5 (peptide sequence: ESYLQWLR, peptide start residue: 405) (UniProt Q96G74)” here?
A: Its log2 fold change is 0.0865.

Q: “ATAD5 (peptide sequence: FLHYFEGIHLDIPK, peptide start residue: 1820) (UniProt Q96QE3)” was tested. Which log2 fold change did it give?
A: The log2 fold change was -1.25.

Q: With “C9orf72 (peptide sequence: FFVLSEK, peptide start residue: 84) (UniProt Q96LT7)” as the target, how does the log2 fold change read?
A: Its log2 fold change is -0.0856.

Q: For “UniProt Q96G28 (peptide sequence: DKLMSMR, peptide start residue: 281)”, which log2 fold change is on record?
A: The log2 fold change was -0.138.

Q: How did the log2 fold change turn out when “CCDC136 (peptide sequence: MQLQLQTELR, peptide start residue: 391) (UniProt Q96JN2)” was run?
A: The log2 fold change was -0.535.

Q: “ABHD14B (peptide sequence: FSVLLLHGIR, peptide start residue: 33) (UniProt Q96IU4)” was tested. Which log2 fold change did it give?
A: The log2 fold change was 1.

Q: Which log2 fold change does the source give for “RAB3IP (peptide sequence: LGYFKEEL, peptide start residue: 469) (UniProt Q96QF0)” here?
A: Its log2 fold change is 0.122.

Q: Which log2 fold change does the source give for “RNPC3 (peptide sequence: LKHTAFATFPNEK, peptide start residue: 64) (UniProt Q96LT9)” here?
A: Its log2 fold change is -0.232.

Q: For “NSUN5 (peptide sequence: YHEVHYILLDPSCSGSGMPSR, peptide start residue: 296) (UniProt Q96P11)”, which log2 fold change is on record?
A: Its log2 fold change is 0.547.

Q: Which log2 fold change does the source give for “USP28 (peptide sequence: CLLELNAK, peptide start residue: 952) (UniProt Q96RU2)” here?
A: The log2 fold change was -0.105.

Q: “UniProt Q96MG7 (peptide sequence: VLRDGFAEEAPSTSR, peptide start residue: 38)” was tested. Which log2 fold change did it give?
A: Its log2 fold change is -0.111.

Q: “LINC00526 (peptide sequence: SAPCDLGASQR, peptide start residue: 47) (UniProt Q96FQ7)” was tested. Which log2 fold change did it give?
A: Its log2 fold change is -0.153.

Q: How did the log2 fold change turn out when “PYURF (peptide sequence: KQEEVEQR, peptide start residue: 107) (UniProt Q96I23)” was run?
A: Its log2 fold change is -0.016.

Q: With “SPG11 (peptide sequence: RVAELAELPVDNLVIK, peptide start residue: 1691) (UniProt Q96JI7)” as the target, how does the log2 fold change read?
A: Its log2 fold change is 0.471.

Q: How did the log2 fold change turn out when “ELMO2 (peptide sequence: SLSYSEILR, peptide start residue: 501) (UniProt Q96JJ3)” was run?
A: Its log2 fold change is 0.102.

Q: How did the log2 fold change turn out when “UniProt Q96FT9 (peptide sequence: RAQQESAQAENHLNGK, peptide start residue: 25)” was run?
A: The log2 fold change was -0.53.

Q: How did the log2 fold change turn out when “UniProt Q96L03 (peptide sequence: KKENDAAVK, peptide start residue: 30)” was run?
A: The log2 fold change was -0.304.

Q: Which log2 fold change does the source give for “UniProt Q96H86 (peptide sequence: GRPSLCAHPPVPR, peptide start residue: 158)” here?
A: Its log2 fold change is 0.251.

Q: How did the log2 fold change turn out when “CNOT6L (peptide sequence: ELLLNNNLLR, peptide start residue: 106) (UniProt Q96LI5)” was run?
A: Its log2 fold change is 0.409.

Q: For “UniProt Q96JG9 (peptide sequence: GAPPHTNPDR, peptide start residue: 2284)”, which log2 fold change is on record?
A: Its log2 fold change is 0.208.

Q: With “ZNF317 (peptide sequence: GAHQGACADWETPSK, peptide start residue: 121) (UniProt Q96PQ6)” as the target, how does the log2 fold change read?
A: Its log2 fold change is 0.496.

Q: “SMG1 (peptide sequence: QVLEEIFFLKR, peptide start residue: 3015) (UniProt Q96Q15)” was tested. Which log2 fold change did it give?
A: The log2 fold change was -0.706.

Q: How did the log2 fold change turn out when “C8orf37 (peptide sequence: FCTPDLLR, peptide start residue: 16) (UniProt Q96NL8)” was run?
A: Its log2 fold change is 0.111.

Q: With “SNF8 (peptide sequence: GVGAGAIAKK, peptide start residue: 5) (UniProt Q96H20)” as the target, how does the log2 fold change read?
A: Its log2 fold change is -0.31.

Q: With “NSD1 (peptide sequence: LLNNMHEK, peptide start residue: 838) (UniProt Q96L73)” as the target, how does the log2 fold change read?
A: The log2 fold change was -0.689.

Q: “ZNF414 (peptide sequence: RPQGGSDAPSGACR, peptide start residue: 299) (UniProt Q96IQ9)” was tested. Which log2 fold change did it give?
A: The log2 fold change was -0.725.

Q: “ATXN7L3B (peptide sequence: DFGIQPVEDK, peptide start residue: 58) (UniProt Q96GX2)” was tested. Which log2 fold change did it give?
A: The log2 fold change was -0.0433.

Q: Which log2 fold change does the source give for “PLEKHA8 (peptide sequence: YITNKEEFTTLQK, peptide start residue: 372) (UniProt Q96JA3)” here?
A: Its log2 fold change is 0.163.

Source: the supplement of paper PMC12819154, “High-throughput peptide-centric local stability assay extends protein–ligand identification to membrane proteins, tissues and bacteria” (Nature Structural & Molecular Biology, 2025)
